This assay is described as follows: qHTS Assay to Find Inhibitors of Chronic Active B-Cell Receptor Signaling. The settings on record: ABC-DLBCL IkBa-CBG/CBR reporter, luminescence ratio (green luciferase fused to IkBa over red control in TMD8 lymphoma cells), 4 h. An outline of the steps:
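TMD8 human ABC-DLBCL cells with doxycycline-inducible IκBα–green luciferase fusion and unfused red luciferase, in 0.5% FBS medium; compounds up to 46 uM, 4 h at 37C. Green/red luminescence ratio, filter-overlap corrected, fitted to concentration-response curves.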

Where [1] appears, read: measured here: CBR red luminescence, cell number.
Setting [2] is: measured here: IkBa-CBG green luminescence.

Consider 40 molecules from PubChem BioAssay AID493014 (National Center for Advancing Translational Sciences (NCATS), 2011).

Some of the results follow. Shown are side measurements of this screen, not its main read-out; they come without a call. Compounds called inactive in the main read-out are mostly missing here. Words in brackets tell the shape of the fitted curve; partial curves, single points and poor fits give uncertain potencies.

Consider `COc1ccc(-n2c(SCC(=O)Nc3cc(C(=O)O)ccc3C)nc3ccccc3c2=O)cc1Cl`, for which the AC50 under setting [1] was 35.5 µM [falling, single point].
On the same count and under the same terms, then `Cc1cc(C)cc(NC(=O)Cc2ccc(S(=O)(=O)N3CCCC3)s2)c1`, with 0.146 µM [rising, full curve, poor fit].
With `N#CCCN1CCN(S(=O)(=O)c2ccc(S(=O)(=O)NCc3ccccc3)cc2)CC1`, the AC50 under setting [1] was 18.4 µM [rising, single point].
`O=C(Nc1cccc(Cl)c1)Nc1ccccc1C(=O)O`: under setting [1], the AC50 is 0.891 µM [falling, full curve].
Regarding `CC1CCC(NC(=O)Cn2cc3c(n2)CCCC3)CC1` (stereo not drawn), the concentration at half-maximal activity (AC50) under setting [1] is 0.517 µM [falling, partial curve, poor fit].
Turning to `COc1ccc([N+](=O)[O-])cc1NC(=O)COC(=O)c1ccccn1`, the AC50 under setting [1] was 5.62 µM [rising, single point].
On to `O=C(N/N=C/c1ccccc1F)c1ccccc1OCc1ccccc1`, for which the AC50 under setting [1] is 2.51 µM [falling, partial curve, poor fit].
Same read-out and setting: the figure for `O=C(CSc1nc2ccccc2o1)NCc1ccc2c(c1)OCO2` is 4.11 µM [falling, full curve, poor fit]; for `Fc1ccc(-c2csc(Nc3ccccn3)n2)cc1` it is 3.16 µM [falling, partial curve]; for `O=c1nc(SCc2c(F)cccc2Cl)nc(-c2ccc(Cl)cc2)[nH]1` it is 1.41 µM [rising, partial curve, poor fit].
On to `CCCSC(=S)c1c(C)[nH]n(-c2ccccc2)c1=O`, for which the AC50 under setting [1] is 11.2 µM [falling, partial curve].
In the case of `Cc1cc(C)n2[nH]c(=O)c(N=Nc3ccc(S(N)(=O)=O)cc3)c2n1`, under setting [1], the AC50 was 0.126 µM [falling, full curve, poor fit].
Still for that read-out and setting: then `Cc1c(CC(=O)O)c(=O)oc2c(C)c3occ(-c4ccc(F)cc4)c3cc12`, with 35.5 µM [rising, single point].
Take `CCOc1ccc(NC(=O)/C(=C\c2ccc(OC(C)=O)c(OC)c2)NC(C)=O)cc1`: the AC50 under setting [1] was 25.9 µM [falling, single point].
On to `O=C(Nc1cccnc1)C1CCCN(S(=O)(=O)c2cccc3nsnc23)C1` (stereo not drawn), for which the half-maximal activity concentration (AC50) runs as follows: under setting [1], 23.1 µM [falling, single point]; under setting [2], 20.6 µM [rising, partial curve, poor fit].
As for `COc1ccc(-n2ncc3c(NCCCn4ccnc4)ncnc32)cc1`, the AC50 under setting [1] is 3.55 µM [rising, single point].
Same read-out and setting: then `O=C(/C(=C/c1ccc(Cl)cc1)c1nc2ccccc2[nH]1)c1cccs1`, with 18.4 µM [falling, partial curve, poor fit]; and `CN(C(=O)COC(=O)c1cccnc1Nc1cccc(C(F)(F)F)c1)C1CCS(=O)(=O)C1` (stereo not drawn), with 2.59 µM [falling, partial curve]; and `O=C(OCc1cnc(Cl)s1)c1c(F)cccc1F`, with 14.1 µM [rising, partial curve, poor fit].
For the molecule `COc1cc(/C=N/O)ccc1OCc1ccc([N+](=O)[O-])cc1`, the AC50 under setting [1] was 1.84 µM [rising, partial curve, poor fit] and the AC50 under setting [2] is 18.4 µM [falling, partial curve, poor fit].
As for `C/C(=N\NC(=O)c1cc(Cl)ccc1O)c1ccc(Br)s1`, the AC50 under setting [1] was 0.517 µM [falling, full curve].
Take `O=[N+]([O-])c1ccc(NC(=S)N2CCc3ccccc3C2)cc1`: the AC50 under setting [1] was 3.66 µM [rising, partial curve, poor fit].
On to `C=CCc1cccc2cc(C(=O)NC(C)(C)C)c(=O)oc12`, for which the AC50 under setting [1] was 29.1 µM [falling, single point].
`COc1cc(OC)c2c(=O)cc(-c3cccnc3)oc2c1`: the AC50 was 22.4 µM [rising, partial curve, poor fit] under setting [1] and 20 µM [falling, partial curve] under setting [2].
Regarding `CCOC(=O)N1CCN(c2nc(SC)nc3sc4c(c23)CC(C)(C)OC4)CC1`, under setting [1], the AC50 was 8.2 µM [rising, partial curve, poor fit].
Same read-out and setting: then `Cc1ccc(-c2nnc(Nc3ccccc3)c3ccccc23)cc1S(=O)(=O)NCC1CCCO1` (stereo not drawn), with 31.6 µM [falling, single point].
Still for that read-out and setting: then `COc1ccc(NCC(=O)Nc2ccc(Cl)cc2C)c(OC)c1`, with 18.4 µM [falling, single point]; and `CCOc1ccc2nc(N3CCOCC3)nc(C)c2c1`, with 4.11 µM [rising, full curve, poor fit]; and `C=CCNC(=O)COc1ccc(Oc2ccccc2)cc1`, with 35.5 µM [falling, single point].
With `O=C(O)C(=O)/C(=C\c1cccc(Cl)c1)c1ccc2ccccc2n1`, the AC50 under setting [1] is 14.1 µM [falling, single point].
In the case of `NC(=O)C1(N2CCCCC2)CCN(Cc2ccccc2Cl)CC1`, the AC50 under setting [1] is 29.1 µM [falling, single point].
Still for that read-out and setting: then `O=C(NC(=S)Nc1ncc(Br)cc1Br)c1ccccc1`, with 10 µM [falling, partial curve, poor fit]; and `O=C(COC(=O)CNC(=O)c1cccc([N+](=O)[O-])c1)Nc1ccccc1OC(F)F`, with 7.31 µM [rising, partial curve].
Take `Cc1cccc(NC(=O)c2ccc3nccnc3c2)n1`: the AC50 under setting [1] was 35.5 µM [falling, single point].
Regarding `O=C(CSc1nnc(COc2ccc(Cl)cc2)o1)N1c2ccccc2CCc2ccccc21`, the AC50 under setting [1] is 7.08 µM [falling, partial curve, poor fit].
For `COc1ccc(/C(N)=N/OC(=O)Cc2cccs2)cc1`, under setting [1], the AC50 was 29.1 µM [falling, single point].
Regarding `Cc1nc(N)c(Br)c(C)c1Br`, the AC50 under setting [1] is 15.8 µM [falling, single point].
In the case of `CCN(CC(=O)Nc1ccc(OC)cc1)CC(=O)N1CC(=O)Nc2ccccc21`, under setting [1], the AC50 was 14.6 µM [rising, partial curve].
Turning to `CCN(C(=O)c1cnc(OC)cc1C(F)(F)F)c1ccc(Cl)cc1Cl`, the AC50 under setting [1] is 12.6 µM [rising, partial curve, poor fit].
With `Cc1ccc(S(=O)(=O)N2CCCC2CNC(=O)C(=O)NCc2cccs2)cc1` (stereo not drawn), the AC50 under setting [1] is 29.1 µM [rising, single point].
